In PubChem BioAssay AID328 (DTP/NCI, 2004):
The list shows only some results of the screen, not a fair sample: it is rich in T/C values a quarter to a half above the control, in often repeated tests (any T/C) and in doses without a T/C. Further doses and runs are listed elsewhere. T/C gives the treated animals as a percentage of the vehicle group. Some doses have a count of surviving animals in place of a T/C: the source files T/C as zero there, which appears to mark a toxic dose or a test without result, not a measured value. Some doses without a T/C left all or most animals alive at the check, yet need not have been tolerated: survival well below the control is almost never listed, so the zero probably covers shortened survival too. Counts of survivors are from the toxicity check (mostly the fifth day) where no day follows; animals may have died later. Schedule codes are those of the source, read here as Q, the interval in days (D) or hours (H), X, the number of doses. Where survival is the endpoint, this PubChem deposit counts one and a half times the control or more as active, and values a quarter to a half above the control carry no call in these data; other NCI protocols may use other cut-offs. Some T/C values carry the count of animals alive at the toxicity check (mostly the fifth day); without a count, all were alive then. Some doses were run more than once; the results are listed from low to high.

Tested on: BDF1 mice, P388 leukemia ip, median survival T/C
Assay: NCI In Vivo Anticancer Drug Screen. Data for tumor model P388 Leukemia (intraperitoneal) in B6D2F1 (BDF1) mice
Details: T/C endpoint: median survival time, higher T/C = longer survival
How it was run: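 T/C = treated-group survival ÷ vehicle-control survival; tumour transplanted into mice before dosing.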

[1] = dose: 100.0 mg/kg/injection, schedule: Q04DX003 (ip), vehicle: saline with Tween-80
[2] = dose: 200.0 mg/kg/injection, schedule: Q04DX003 (ip), vehicle: saline with Tween-80
[3] = dose: 100.0 mg/kg/injection, schedule: Q04DX003 (ip), vehicle: saline
[4] = dose: 15.0 mg/kg/injection, schedule: Q01DX009 (ip), vehicle: saline with Tween-80

CSc1ncnc2c1ncn2CO
T/C (dose: 44.0 mg/kg/injection, schedule: Q01DX009 (ip), vehicle: saline with Tween-80): 127 % of control [5 of 6 alive] | T/C (dose: 60.0 mg/kg/injection, schedule: Q01DX009 (ip), vehicle: Klucel (hydroxypropylcellulose) (HPC)): 125 % of control | T/C (dose: 60.0 mg/kg/injection, schedule: Q01DX009 (ip), vehicle: saline): 137 % of control | T/C (dose: 66.0 mg/kg/injection, schedule: Q01DX009 (ip), vehicle: Klucel (hydroxypropylcellulose) (HPC)): 135 % of control | T/C (dose: 66.0 mg/kg/injection, schedule: Q01DX009 (ip), vehicle: saline with Tween-80): 140 % of control | T/C (dose: 100.0 mg/kg/injection, schedule: Q01DX009 (ip), vehicle: saline with Tween-80): 141 % of control [5 of 6 alive] | T/C [1]: 130 % of control | survivor count (dose: 120.0 mg/kg/injection, schedule: Q01DX009 (ip), vehicle: saline): 6 of 6 | survivor count (dose: 150.0 mg/kg/injection, schedule: Q01DX009 (ip), vehicle: saline with Tween-80): 5 of 6 | survivor count (dose: 200.0 mg/kg/injection, schedule: Q01DX009 (ip), vehicle: saline with Tween-80): 0 of 6 | T/C [2]: 140 % of control | survivor count (dose: 240.0 mg/kg/injection, schedule: Q01DX009 (ip), vehicle: Klucel (hydroxypropylcellulose) (HPC)): 0 of 6 | survivor count (dose: 240.0 mg/kg/injection, schedule: Q01DX009 (ip), vehicle: saline): 2 of 6 | survivor count (dose: 400.0 mg/kg/injection, schedule: Q01DX009 (ip), vehicle: saline with Tween-80): 0 of 6

CC1(C)OC2OC(COC(=O)c3ccccc3)C(=O)C2O1 (stereo not drawn)
survivor count (dose: 50.0 mg/kg/injection, schedule: Q01DX009 (ip), vehicle: saline with Tween-80): 6 of 6

CC1(C)N=C(N)N=C(N)N1c1ccc(CCCCc2cccc(S(=O)(=O)F)c2)c(Cl)c1
T/C (dose: 0.29 mg/kg/injection, schedule: Q01DX009 (ip), vehicle: saline with Tween-80): 127 % of control | T/C (dose: 0.44 mg/kg/injection, schedule: Q01DX009 (ip), vehicle: saline with Tween-80): 140 % of control | survivor count (dose: 0.66 mg/kg/injection, schedule: Q01DX009 (ip), vehicle: saline with Tween-80): 6 of 6 | T/C (dose: 0.88 mg/kg/injection, schedule: Q01DX009 (ip), vehicle: saline with Tween-80): 136 % of control | survivor count (dose: 1.0 mg/kg/injection, schedule: Q01DX009 (ip), vehicle: saline with Tween-80): 6 of 6 | T/C (dose: 2.0 mg/kg/injection, schedule: Q01DX009 (ip), vehicle: saline with Tween-80): 126 % of control | T/C (dose: 8.0 mg/kg/injection, schedule: Q01DX009 (ip), vehicle: saline with Tween-80): 137 % of control | T/C (dose: 12.0 mg/kg/injection, schedule: Q01DX009 (ip), vehicle: saline with Tween-80): 144 % of control | T/C (dose: 18.0 mg/kg/injection, schedule: Q01DX009 (ip), vehicle: saline with Tween-80): 148 % of control | T/C (dose: 25.0 mg/kg/injection, schedule: Q04DX003 (ip), vehicle: saline with Tween-80): 127 % of control | survivor count (dose: 50.0 mg/kg/injection, schedule: Q04DX003 (ip), vehicle: saline with Tween-80): 3 of 6 | survivor count [1]: 4 of 6

NC(N)=NC(N)=Nc1ccc(-c2ccc(N=C(N)N=C(N)N)cc2)cc1
T/C (dose: 6.25 mg/kg/injection, schedule: Q01DX009 (ip), vehicle: saline with Tween-80): 125 % of control

COc1cc2c(cc1OC)-c1cc3cc(OC)c(OC)cc3c(C)[n+]1CC2 (tested in a mixture with another compound)
survivor count (dose: 25.0 mg/kg/injection, schedule: Q01DX009 (ip), vehicle: Klucel (hydroxypropylcellulose) (HPC)): 3 of 3 | survivor count (dose: 100.0 mg/kg/injection, schedule: Q01DX009 (ip), vehicle: Klucel (hydroxypropylcellulose) (HPC)): 3 of 3 | survivor count (dose: 200.0 mg/kg/injection, schedule: Q01DX009 (ip), vehicle: Klucel (hydroxypropylcellulose) (HPC)): 0 of 3 | survivor count (dose: 400.0 mg/kg/injection, schedule: Q01DX009 (ip), vehicle: Klucel (hydroxypropylcellulose) (HPC)): 0 of 3

C[C@H]1[C@H](C)CC[C@]2(CO)CC[C@]3(C)C(=CC[C@@H]4[C@@]5(C)CC[C@@H](O)C(C)(C)[C@@H]5CC[C@]43C)[C@H]12
T/C (dose: 100.0 mg/kg/injection, schedule: Q01DX010 (ip), vehicle: acetone): 125 % of control | T/C (dose: 200.0 mg/kg/injection, schedule: Q01DX010 (ip), vehicle: acetone): 125 % of control

COc1cc2cc3c4ccccc4cc[n+]3c(C)c2cc1OC (tested in a mixture with another compound)
T/C (dose: 5.0 mg/kg/injection, schedule: Q01DX009 (ip), vehicle: saline): 140 % of control | T/C (dose: 10.0 mg/kg/injection, schedule: Q01DX009 (ip), vehicle: saline): 136 % of control | T/C (dose: 10.0 mg/kg/injection, schedule: Q04DX003 (ip), vehicle: saline): 137 % of control [5 of 6 alive] | T/C (dose: 20.0 mg/kg/injection, schedule: Q04DX003 (ip), vehicle: saline): 141 % of control | survivor count (dose: 80.0 mg/kg/injection, schedule: Q01DX009 (ip), vehicle: saline): 4 of 6 | survivor count (dose: 80.0 mg/kg/injection, schedule: Q04DX003 (ip), vehicle: saline): 5 of 6 | survivor count (dose: 160.0 mg/kg/injection, schedule: Q01DX009 (ip), vehicle: saline): 2 of 6 | survivor count (dose: 160.0 mg/kg/injection, schedule: Q04DX003 (ip), vehicle: saline): 5 of 6 | survivor count (dose: 320.0 mg/kg/injection, schedule: Q04DX003 (ip), vehicle: saline): 6 of 6

COc1ccc(/C(C#N)=C2C=C/C(=N\O)C(C)=C/2Cl)cc1
survivor count [1]: 6 of 6 | survivor count [2]: 6 of 6 | survivor count (dose: 400.0 mg/kg/injection, schedule: Q04DX003 (ip), vehicle: saline with Tween-80): 6 of 6

N=C([Se])c1ncn(C2OC(CO)C(O)C2O)c1N (stereo not drawn)
survivor count [3]: 1 of 6

O=C(Nc1ccc(C2=NCCCN2)cc1)c1ccc(C(=O)Nc2ccc(C3=NCCCN3)cc2)nc1
T/C (dose: 8.0 mg/kg/injection, schedule: Q01DX009 (ip), vehicle: saline): 146 % of control | T/C (dose: 10.0 mg/kg/injection, schedule: Q01DX009 (ip), vehicle: saline with Tween-80): 137 % of control [5 of 6 alive] | T/C (dose: 12.5 mg/kg/injection, schedule: Q01DX009 (ip), vehicle: saline): 134 % of control | T/C [4]: 136 % of control [5 of 6 alive] | survivor count [4]: 2 of 6 | T/C (dose: 25.0 mg/kg/injection, schedule: Q04DX003 (ip), vehicle: saline): 126 and 131 % of control [5 of 6 alive] | survivor count (dose: 37.5 mg/kg/injection, schedule: Q04DX003 (ip), vehicle: saline): 4 of 6 | survivor count (dose: 50.0 mg/kg/injection, schedule: Q01DX009 (ip), vehicle: saline): 1 of 6 | survivor count (dose: 50.0 mg/kg/injection, schedule: Q04DX003 (ip), vehicle: saline): 0 of 6 | survivor count [3]: 0 of 6 | survivor count (dose: 200.0 mg/kg/injection, schedule: Q04DX003 (ip), vehicle: saline): 0 of 6 | survivor count (dose: 400.0 mg/kg/injection, schedule: Q04DX003 (ip), vehicle: saline): 0 of 6

O=C(O)CP(=O)(O)O
T/C (dose: 250.0 mg/kg/injection, schedule: Q04DX024 (ip), vehicle: saline): 128 % of control | T/C (dose: 500.0 mg/kg/injection, schedule: Q03HX024 (ip), vehicle: saline): 129 % of control | T/C (dose: 500.0 mg/kg/injection, schedule: Q04DX024 (ip), vehicle: saline): 146 % of control | T/C (dose: 750.0 mg/kg/injection, schedule: Q03HX024 (ip), vehicle: saline): 144 % of control [9 of 10 alive]

C[n+]1c2cc(N)ccc2cc2ccc(N)cc21
T/C (dose: 3.5 mg/kg/injection, schedule: Q01DX009 (ip), vehicle: saline): 138 % of control | T/C (dose: 5.3 mg/kg/injection, schedule: Q01DX009 (ip), vehicle: saline): 144 % of control | survivor count (dose: 18.0 mg/kg/injection, schedule: Q01DX009 (ip), vehicle: saline): 5 of 6

CCCP(CCC)c1ccccc1
survivor count (dose: 100.0 mg/kg/injection, schedule: Q01DX009 (sc), vehicle: olive oil, sesame oil, peanut oil): 6 of 6 | survivor count (dose: 200.0 mg/kg/injection, schedule: Q01DX009 (sc), vehicle: olive oil, sesame oil, peanut oil): 6 of 6
